In PubChem BioAssay AID504842 (National Center for Advancing Translational Sciences (NCATS), 2011):
Out of some 330,000 compounds screened, about 100 (0.03%) were called active. Inconclusive means that the source gave no clear call. Such entries were picked first, then a sample of the others. The call rests on the fitted dose curve; in most records, active means well fitted inhibition curve with a large enough effect; inconclusive means small, poorly fitted or top-dose-only effect; inactive means flat fitted curve, though single readings scatter. Potencies of inconclusive entries are doubtful fits and often do not repeat.

Test system: Chaperonin Mm-Cpn (Methanococcus maripaludis)
Experiment: Inhibitors of TCP-1 ring complex (TRiC) of Methanococcus maripaludis (MmCpn): qHTS; further: nearly all actives have a fitted effect of over 80% in size;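 on Potency: enzyme at 25 nM with ATP substrate at 10 µM during the reaction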
Settings: purified Mm-Cpn ATPase, ADP Transcreener TR-FRET; series mostly up to 76.9 µM; activity, negative = inhibition: at the top concentration
Method in brief: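 Purified archaeal chaperonin (25 nM final) was preincubated with compound for 10 min at 37°C, then ATP (10 uM final) was added for 30 min at 37°C in Tris pH 7.4/KCl/MgCl2/DTT buffer. ADP was quantified by HTRF Transcreener TR-FRET.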
On the % scale 0 is the no-effect control and ±100 the full control effect; potency means the concentration at half of the fitted maximal effect.

Potency, inactive:
COc1ccc2nc(C)cc(SCC(=O)O)c2c1

Potency, inconclusive:
O=c1ccc(S(=O)(=O)N2CCCC2)c[nH]1 63.1 µM [inhibitor, single point]
Cc1cccc(C)c1OC(=O)CSc1nnc(-c2ccccc2O)o1 17.8 µM [inhibitor, single point]
Cc1ccc(-c2nn(CCC#N)cc2C=C(C#N)C#N)cc1 89.1 µM [inhibitor, single point]
CCN1/C(=C/C(=S)Nc2ccccc2)Sc2ccccc21 25.1 µM [inhibitor, partial curve, poor fit]
CCCCc1ccc(N2C(=NC(=O)C3CCCO3)SC3CS(=O)(=O)CC32)cc1 (centres undefined) 15.8 µM [inhibitor, single point]
COc1ccc(CNC(=O)c2cnc(C)cn2)c(OC)c1 22.4 µM [inhibitor, single point]
Cc1nn(-c2ccc(F)cc2)c2nc(N)c(C#N)c(-c3cccs3)c12 56.2 µM [inhibitor, partial curve, poor fit]
COc1ccc2sc(-c3ccccc3OC)c(-c3ccc(OC)nc3)c2c1 56.2 µM [inhibitor, partial curve, poor fit]
COc1ccc(NC(=O)CN(C)C(=O)CC2CCCCC2)cc1 14.1 µM [inhibitor, single point]
COc1ccccc1NC(=O)c1ccc(NC(=O)COC(=O)c2cccnc2Cl)cc1 25.1 µM [inhibitor, single point]
O=C1CCCN1CCC(=O)N1CCCC(CO)(Cc2ccccc2)C1 (centres undefined) 14.1 µM [inhibitor, single point]
COc1ccc(C(=O)c2c(-c3ccc(OC)cc3)oc3ccccc23)cc1 178 µM [inhibitor, partial curve, poor fit]
Oc1ccc(N=Nc2nccs2)c(O)c1 17.8 µM [inhibitor, single point]
CC(=O)Oc1ccc(/C=C2/Oc3ccccc3C2=O)cc1 28.2 µM [inhibitor, single point]
COCCCn1c(=O)c2sccc2n2c(CCCC(=O)NCc3cccc(OC)c3)nnc12 15.8 µM [inhibitor, single point]
CC(C)Nc1nnc(SCC(=O)NCc2ccc3c(c2)OCO3)s1 11.2 µM [inhibitor, single point]
CC(C)(C)c1ccc(S(=O)(=O)N2CCN(CC(=O)N3CC(=O)Nc4ccccc43)CC2)cc1 12.6 µM [inhibitor, single point]
Cc1cc(=O)[nH]c2cc(Cl)ccc12 79.4 µM [inhibitor, single point]
CCN(CC)C(=O)CC(c1ccc2c(c1)OCO2)c1c(OC)cc(OC)c2ccc(=O)oc12 (centres undefined) 20 µM [inhibitor, single point]
COc1ccc(NC(=O)N(CCO)Cc2cc3c(C)cc(C)cc3[nH]c2=O)cc1 6.31 µM [inhibitor, single point]
Fc1ccc2nc(Nc3nc4cc5c(cc4s3)OCO5)sc2c1 22.4 µM [inhibitor, single point]
O=C(NCc1ccc(F)cc1)c1ccc(CS(=O)(=O)Cc2ccc(F)cc2)o1 89.1 µM [inhibitor, single point]
COc1cc(OC)cc(-c2c(C#Cc3ccsc3)c3cc(-c4ccc(OC)c(OC)c4)ccc3n2C)c1 282 µM [inhibitor, partial curve, poor fit]
COc1nccc(Nc2ccccc2)c1C#N 100 µM [inhibitor, single point]
O=C(NN1C(=O)/C(=C/c2cc([N+](=O)[O-])ccc2O)SC1=S)c1ccccc1O 100 µM [inhibitor, partial curve, poor fit]
O=c1c2c3nc4ccccc4nc3n(/N=C/c3ccncc3)c2ncn1-c1ccccc1 17.8 µM [inhibitor, single point]
CN(Cc1ccccc1)C1CCN(Cc2ccccc2[N+](=O)[O-])CC1 10 µM [inhibitor, single point]
Cc1cccc(NC(=S)/N=C(\N)Nc2nc(C)c3ccccc3n2)c1 100 µM [inhibitor, single point]
COc1cccc(-c2nnc(NC(=O)Cc3cccs3)s2)c1 178 µM [inhibitor, partial curve, poor fit]
O=C(NC1CCCC1)C(c1cccnc1)N(C(=O)c1csnn1)C1CCCC1 (centres undefined) 7.94 µM [inhibitor, single point]
CCCCCCCCNC(=S)NCCN1CCCCC1 10 µM [inhibitor, single point]
COc1ccc(NC(=O)COC(=O)c2ccc(F)cc2F)cc1 79.4 µM [inhibitor, single point]
Cc1ccc(S(=O)(=O)CCC(=O)Nc2ccc(F)cc2)cc1 20 µM [inhibitor, single point]
Cc1[nH]c2ccccc2c1SCCNC(=O)c1ccc(S(=O)(=O)N2CCCC2)cc1 15.8 µM [inhibitor, single point]
CCOc1ccc(S(=O)(=O)N2CCN(C(=O)c3oc4ccc(OC)cc4c3C)CC2)cc1 20 µM [inhibitor, single point]
O=C(c1cc(-c2ccco2)on1)N1CCCc2ccccc21 11.2 µM [inhibitor, single point]
CCOC(=O)N1CCC(NCCNC(=O)c2cccs2)CC1 10 µM [inhibitor, single point]
Cc1csc(NC(=O)CSc2nnc(Cn3c(=O)sc4ccccc43)n2-c2ccccc2)n1 20 µM [inhibitor, single point]
Cc1ccc(/C=C/C(=O)OCC(=O)NC(C)C)o1 224 µM [inhibitor, partial curve, poor fit]
COc1ccc(-c2ccc3nnc(SCC(=O)Nc4ccc(NC(C)=O)cc4)n3n2)cc1 28.2 µM [inhibitor, partial curve, poor fit]
Cc1cccc(-n2ncc3c(NC4CCCCC4)ncnc32)c1 70.8 µM [inhibitor, single point]
CC(C)C[C@H]1CN=C(Nc2ccccc2)N1CC(C)C 14.1 µM [inhibitor, single point]
Cc1onc(-c2ccccc2)c1C(=O)Nc1nc(-c2ccccc2)cs1 100 µM [inhibitor, single point]
Cc1ccccc1OCC(O)Cn1c(NCc2ccco2)nc2c1c(=O)n(C)c(=O)n2C (centres undefined) 17.8 µM [inhibitor, single point]
Cc1cc(NC(=O)CSc2nc3c(C)cccc3cc2C#N)no1 79.4 µM [inhibitor, single point]
O=C(/C=C\c1ccco1)Nc1nc(-c2ccc3ccccc3c2)cs1 224 µM [inhibitor, partial curve, poor fit]
CC(C)c1ccc(NC(=O)C(c2ccccc2)N2CC(=O)Nc3ccccc32)cc1 (centres undefined) 11.2 µM [inhibitor, single point]
CSc1ncccc1C(=O)NCC(=O)Nc1ccc(F)c(F)c1 22.4 µM [inhibitor, single point]
COc1ccc(CCNCC(=O)Nc2ccc(OC(F)F)cc2)cc1 112 µM [inhibitor, single point]

For convenience, part of the list above:
Potency, inconclusive:
Cc1ccc(S(=O)(=O)CCC(=O)Nc2ccc(F)cc2)cc1 20 µM [inhibitor, single point]
Cc1[nH]c2ccccc2c1SCCNC(=O)c1ccc(S(=O)(=O)N2CCCC2)cc1 15.8 µM [inhibitor, single point]

Following part:

activity, negative = inhibition, inactive:
CCN(CC)S(=O)(=O)c1ccc(N2CCOCC2)c(NC(=O)c2ccccc2)c1 0.689%
COc1ccc(N2CCN(CCCn3c(=S)[nH]c4ccccc4c3=O)CC2)cc1 4.23%
Oc1cccnc1SCc1ccccc1 0.565%
CC1CCCCC1NC(=O)CSc1nnc(-c2ccncc2)n1CCCN(C)C (centres undefined) -2.75%
CCN1C(=O)[C@H]2[C@@H](c3ccc(-c4ccc5c(c4)OCO5)cc3)N[C@@](Cc3ccccc3)(C(=O)OC)[C@H]2C1=O 2.35%
CCCCc1n[nH]c(=S)n1Cc1ccc(C)cc1 0.815%
CC1SCC(=NOCc2ccccc2)CS1 (centres undefined) 0.115%
O=c1c2cc(F)ccc2sn1-c1ccc(F)cc1 -7.61%
OC(CNCCc1ccc(Cl)cc1)COc1ccc2ccccc2c1 (centres undefined) 3.88%
O=S(=O)(Nc1ccc2c(c1)oc1ccccc12)N1CCCC1 0.358%
C=CCn1c(O)c(C=Nc2ccc(Cc3ccncc3)cc2)c(=O)[nH]c1=S -0.131%
COc1ccc(NC(=O)C2CCN(S(=O)(=O)c3ccc(N4CCCC4=O)cc3)CC2)cc1OC -2.14%
Cc1ccc(C2C(C(=O)c3ccco3)=C(O)C(=O)N2c2nnc(C)s2)cc1 (centres undefined) -21.8%
Brc1c(NC2=NCCN2)ccc2nccnc12 -3.04%
CCOC(=O)c1nnn(-c2nonc2N)c1CSc1ccccc1 -0.82%
COc1ccc(S(=O)(=O)N2CCN(CCCOc3ccc(F)cc3)CC2)cc1OC 1.39%
COc1ccc(NC(=O)c2cc(-c3ccc(C)o3)nc3ccccc23)cc1OC -0.406%
O=C(CN1C(=O)C(=O)N(CCC2=CCCCC2)C1=O)c1c[nH]c2ccccc12 -1.33%
Cc1nn(Cc2ccc(Cl)cc2)c(C)c1NC(=O)c1noc2c1CCc1ccccc1-2 0.872%

Ordered by formula weight (falling): some entries from above.
activity, negative = inhibition, inactive:
COc1ccc(N2CCN(CCCn3c(=S)[nH]c4ccccc4c3=O)CC2)cc1 4.23%
CCOC(=O)c1nnn(-c2nonc2N)c1CSc1ccccc1 -0.82%
O=S(=O)(Nc1ccc2c(c1)oc1ccccc12)N1CCCC1 0.358%
Brc1c(NC2=NCCN2)ccc2nccnc12 -3.04%
CCCCc1n[nH]c(=S)n1Cc1ccc(C)cc1 0.815%
CC1SCC(=NOCc2ccccc2)CS1 (centres undefined) 0.115%
Oc1cccnc1SCc1ccccc1 0.565%
